No constants are given. Whether binding was seen depends on the method and setting. In cells and extracts the contact can be indirect. Some binding calls cover weakened binding; strength is not graded here. For part of these data: Where a sequence is shown, tags or fusion partners need not be part of it.
Experiments:
Experiment in all cases: co-IP; HEK293T transfected with Flag-WDTC1, its truncates or vector alone; immunoprecipitation with anti-Flag M2 beads; endogenous CCT1 and CCT5 detected by blot
[1] = biological target: T1, M1 truncate (aa1-241) of WDTC1 (mouse) (UniProt Q80ZK9)
T1 sequence: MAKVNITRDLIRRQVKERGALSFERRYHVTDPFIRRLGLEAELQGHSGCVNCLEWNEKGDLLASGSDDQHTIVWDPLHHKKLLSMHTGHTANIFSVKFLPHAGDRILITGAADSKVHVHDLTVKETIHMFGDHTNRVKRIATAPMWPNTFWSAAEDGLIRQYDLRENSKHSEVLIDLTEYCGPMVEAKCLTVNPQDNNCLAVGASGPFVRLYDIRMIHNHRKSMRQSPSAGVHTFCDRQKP

Amino acid sequences for entries named in this document (tags omitted).
UniProt P48643: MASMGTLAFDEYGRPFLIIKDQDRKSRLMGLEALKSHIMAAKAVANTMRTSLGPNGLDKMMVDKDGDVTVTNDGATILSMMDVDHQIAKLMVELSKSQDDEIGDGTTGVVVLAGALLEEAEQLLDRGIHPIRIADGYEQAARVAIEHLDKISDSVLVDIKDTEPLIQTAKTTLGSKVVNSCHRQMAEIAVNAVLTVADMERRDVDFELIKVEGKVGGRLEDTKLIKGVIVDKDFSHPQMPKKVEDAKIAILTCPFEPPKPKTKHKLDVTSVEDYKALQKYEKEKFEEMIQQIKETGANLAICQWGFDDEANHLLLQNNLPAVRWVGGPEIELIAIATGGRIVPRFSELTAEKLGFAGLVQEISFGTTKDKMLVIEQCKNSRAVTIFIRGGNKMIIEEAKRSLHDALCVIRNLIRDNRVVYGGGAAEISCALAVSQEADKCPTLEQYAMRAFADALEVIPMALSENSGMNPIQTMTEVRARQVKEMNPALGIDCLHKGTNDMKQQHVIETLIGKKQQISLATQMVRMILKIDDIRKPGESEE

[2] = biological target: T2, M2 truncate (aa 1-343) of WDTC1 (mouse) (UniProt Q80ZK9)
T2 sequence: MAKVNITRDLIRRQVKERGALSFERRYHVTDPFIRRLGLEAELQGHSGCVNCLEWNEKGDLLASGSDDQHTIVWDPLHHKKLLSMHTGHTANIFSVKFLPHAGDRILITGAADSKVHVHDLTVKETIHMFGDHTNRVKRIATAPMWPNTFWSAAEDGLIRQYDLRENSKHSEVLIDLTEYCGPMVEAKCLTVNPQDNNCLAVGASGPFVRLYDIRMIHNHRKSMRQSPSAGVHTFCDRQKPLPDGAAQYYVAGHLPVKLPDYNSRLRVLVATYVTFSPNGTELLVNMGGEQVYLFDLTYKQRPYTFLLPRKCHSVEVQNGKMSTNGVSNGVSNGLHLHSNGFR

[3] = biological target: T3, Flag-tagged WDTC1 (mouse) (UniProt Q80ZK9)
T3 sequence: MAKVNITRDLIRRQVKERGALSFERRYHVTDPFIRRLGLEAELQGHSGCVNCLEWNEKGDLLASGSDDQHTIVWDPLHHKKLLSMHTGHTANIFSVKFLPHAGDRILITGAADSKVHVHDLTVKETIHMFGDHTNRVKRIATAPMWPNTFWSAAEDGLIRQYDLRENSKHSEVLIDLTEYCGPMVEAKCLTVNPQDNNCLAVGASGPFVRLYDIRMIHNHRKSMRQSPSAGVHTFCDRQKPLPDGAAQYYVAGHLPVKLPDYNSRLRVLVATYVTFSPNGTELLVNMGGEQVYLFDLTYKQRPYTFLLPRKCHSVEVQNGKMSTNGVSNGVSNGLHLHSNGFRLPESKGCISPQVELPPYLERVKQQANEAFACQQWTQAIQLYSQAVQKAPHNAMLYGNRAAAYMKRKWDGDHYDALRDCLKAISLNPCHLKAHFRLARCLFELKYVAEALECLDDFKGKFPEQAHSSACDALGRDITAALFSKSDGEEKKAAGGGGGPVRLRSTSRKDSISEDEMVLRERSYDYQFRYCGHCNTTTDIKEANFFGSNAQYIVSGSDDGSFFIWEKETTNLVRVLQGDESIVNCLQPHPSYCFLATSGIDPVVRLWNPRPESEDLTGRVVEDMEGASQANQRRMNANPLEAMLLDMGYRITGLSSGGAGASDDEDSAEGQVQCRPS

Q: Which binding [1] does the source give for “endogenous CCT5 (from UniProt P48643 1-541)” here?
A: binds weakly

Q: What about the binding [2] of the same substance?
A: binds

Q: What about the binding [3] of the same substance?
A: binds
